Assay results: publication doi:10.1101/870899

Legend:
[1] = target: T1, GST-BMP2K CT#2 (851-1161) (human) (UniProt Q9NSY1); assay: pull-down
T1 sequence: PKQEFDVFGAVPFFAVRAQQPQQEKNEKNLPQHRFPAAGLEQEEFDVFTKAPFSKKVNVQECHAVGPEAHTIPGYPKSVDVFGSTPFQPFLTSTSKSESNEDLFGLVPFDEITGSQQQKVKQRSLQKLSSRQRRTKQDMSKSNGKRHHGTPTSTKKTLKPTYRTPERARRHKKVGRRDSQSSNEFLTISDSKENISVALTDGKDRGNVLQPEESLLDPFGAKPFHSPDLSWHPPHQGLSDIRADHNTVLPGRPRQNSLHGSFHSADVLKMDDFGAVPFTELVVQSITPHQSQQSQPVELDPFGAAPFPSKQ

[2] = target: T2, GST-BMP2K-CT#1 (561-850) (human) (UniProt Q9NSY1); assay: pull-down
T2 sequence: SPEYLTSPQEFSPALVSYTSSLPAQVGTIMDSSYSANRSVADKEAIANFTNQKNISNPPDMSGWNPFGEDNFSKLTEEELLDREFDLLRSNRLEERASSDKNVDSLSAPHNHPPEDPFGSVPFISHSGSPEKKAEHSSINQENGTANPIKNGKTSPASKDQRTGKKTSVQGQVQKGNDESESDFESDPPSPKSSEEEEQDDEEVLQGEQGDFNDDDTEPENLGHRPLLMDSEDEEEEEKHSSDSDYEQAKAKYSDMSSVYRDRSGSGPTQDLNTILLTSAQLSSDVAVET

With FCHO (human (endogenous in HeLa)) the binding [1] was “no binding” and the binding [2] was “no binding”.

Results are given in words; binding and its absence hold for the method and conditions named. In cells and extracts the contact can be indirect. Tags and fused reporters may be left off the sequences shown.
